{"source": "PubChem BioAssay AID504834", "about": "(National Center for Advancing Translational Sciences (NCATS), 2011)", "note": "About 22,000 (6.9%) of roughly 320,000 compounds were called active. This list was built around the results that the source calls inconclusive (neither active nor inactive); the mix of calls is not that of the screen. The call rests on the fitted dose curve; in most records, active means well fitted inhibition curve with a large enough effect; inconclusive means small, poorly fitted or top-dose-only effect, or another doubt; inactive means no such curve, though single readings can be large or run the other way. A potency beside an inconclusive call is a rough fit, not a confirmed value. Potency means the concentration at half of the fitted maximal effect."}
{"assay": "Primary qHTS for delayed death inhibitors of the malarial parasite plastid, 96 hour incubation", "details": "P. falciparum luciferase reporter growth; series mostly up to 28.7 µM", "summary_of_the_method": "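Infected RBCs, 2% Hct / 0.05% parasitemia final; luciferase-reporter P. falciparum; cpd 96 h, 37 C, 5% CO2; luciferase detection reagent; luminescence.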"}
{"smiles": "Cn1nc(C(F)(F)F)c(-c2ccc(Br)cc2)c1NC(=O)CSCC(=O)O", "Potency": "inconclusive: 18.5 µM [inhibitor, single point]"}
{"smiles": "O=C(Nc1nc2c(F)cc(F)cc2s1)c1ccc([N+](=O)[O-])o1", "Potency": "inconclusive: 0.131 µM [inhibitor, full curve]"}
{"smiles": "CCCCCCC(=O)N1C/C=C\\C(c2ccc(OC)cc2)N(Cc2ccc(F)cc2)C(=O)C1", "note": "(configuration not stated)", "Potency": "inconclusive: 13.1 µM [inhibitor, single point]"}
{"smiles": "CCOc1ccc(NC(=O)CCc2nnc3ccc(N4CCC(C)CC4)nn23)cc1", "Potency": "inconclusive: 14.7 µM [inhibitor, single point]"}
{"smiles": "Cc1nn(-c2cc(C(F)(F)F)ccc2Cl)c2nc(C(Cl)(Cl)Cl)[nH]c(=O)c12", "Potency": "inconclusive: 2.62 µM [inhibitor, full curve, poor fit]"}
{"smiles": "CC(NC(=O)CCNC(=O)N1CCn2c1nc1ccccc12)c1ccccc1", "note": "(configuration not stated)", "Potency": "inactive"}
{"smiles": "NS(=O)(=O)c1cccc(NC(=O)COC(=O)Cc2n[nH]c(=O)c3ccccc23)c1", "Potency": "inconclusive: 18.5 µM [inhibitor, single point]"}
{"smiles": "CCOC(=O)N1CCN(Cc2nc3cc(NC(=O)CC(C)C)ccc3n2CC)CC1", "Potency": "inactive"}
{"smiles": "CC(C)(C)NC(=O)COC(=O)c1ccc(Cl)nc1", "Potency": "inconclusive: 18.5 µM [inhibitor, single point]"}
{"smiles": "FC(F)(F)c1cnc(N2CCN(C(=S)NCc3ccccc3)CC2)c(Cl)c1", "Potency": "inactive"}
{"smiles": "COc1ccccc1C(=O)NCC(c1cccs1)N1CCc2ccccc21", "note": "(configuration not stated)", "Potency": "active: 3.7 µM"}
{"smiles": "COc1ccc2cc(C(=O)C3CCCN(C(=O)c4ccnn4C)C3)ccc2c1", "note": "(configuration not stated)", "Potency": "inconclusive: 16.5 µM [inhibitor, partial curve, poor fit]"}
{"smiles": "O=C(NCc1ccc(F)cc1)C1CC(=O)N(C2CCCC2)C1", "note": "(configuration not stated)", "Potency": "inactive"}
{"smiles": "CC(C)CNC(=O)c1cccc(NC(=O)Cc2ccc(Br)cc2)c1", "Potency": "inconclusive: 5.22 µM [inhibitor, partial curve]"}
{"smiles": "Cc1cc(C)c(NC(=S)N(CCN(C)C)C(C)c2cccnc2)c(C)c1", "note": "(configuration not stated)", "Potency": "inconclusive: 13.1 µM [inhibitor, partial curve, poor fit]"}
{"smiles": "Cc1ccc(CN2CCN(CC(=O)N/N=C/c3ccccc3F)CC2)cc1", "Potency": "inactive"}
{"smiles": "COc1c(N2CCN(C(=S)NC3CC4CCC3C4)C(C)C2)c(F)cc2c(=O)c(C(=O)O)cn(C3CC3)c12", "note": "(configuration not stated)", "Potency": "inconclusive: 3.7 µM [inhibitor, partial curve, poor fit]"}
{"smiles": "CCOc1cccc(OCCOCCN(C)Cc2ccccc2)c1", "Potency": "inactive"}
{"smiles": "Cc1ccc(C(=O)Nc2ccc(Br)c(C(F)(F)F)c2)cc1", "Potency": "active: 11.7 µM"}
{"smiles": "COCCn1c(CN2CCN(C)CC2)nc2c1c(=O)n(C)c(=O)n2C", "Potency": "inconclusive: 10.4 µM [inhibitor, partial curve, poor fit]"}
{"smiles": "Cc1noc(C)c1S(=O)(=O)N1CCC(C(=O)N(C)Cc2ccccc2)CC1", "Potency": "inconclusive: 13.1 µM [inhibitor, single point]"}
{"smiles": "CCN1CCCC1CNC(=O)C(NC(=O)C1CCC(C)CC1)C(C)C", "note": "(configuration not stated)", "Potency": "inconclusive: 0.465 µM [inhibitor, full curve, poor fit]"}
{"smiles": "CCOC(=O)N1CCN(C(=O)c2cn(C)c3ccc(S(=O)(=O)N4CCC(C)CC4)cc3c2=O)CC1", "Potency": "inactive"}
{"smiles": "C/C=C/c1ccc(OCC(=O)Nc2ccc(OC)c(OC)c2)c(OC)c1", "Potency": "inactive"}
{"smiles": "COc1ccccc1CN1CC(C(=O)NCc2cc(C(C)C)no2)CCC1=O", "note": "(configuration not stated)", "Potency": "inactive"}
{"smiles": "Cc1ccc(CCNC(=O)CCNS(=O)(=O)c2ccc3c(c2)oc(=O)n3C)cc1", "Potency": "inactive"}
{"smiles": "O=C1c2cccc3cccc(c23)C(=O)N1Cc1cccnc1", "Potency": "inactive"}
{"smiles": "CCO[C@H]1OC(C(=O)NCc2ccccc2)=C[C@@H](C)[C@@H]1CCCO", "Potency": "inactive"}
{"smiles": "O=C(OCC(=O)N1CCN(c2ccccc2)CC1)c1cc(Cl)ccc1[N+](=O)[O-]", "Potency": "active: 11.7 µM"}
{"smiles": "CN1CCC(OC(=O)COc2ccccc2)CC1", "Potency": "active: 11.7 µM"}
{"smiles": "CC1(C)Cc2ccccc2C(/C(=N/O)C(N)=O)=N1", "Potency": "inconclusive: 11.7 µM [inhibitor, single point]"}
{"smiles": "COc1ccc(NC(=O)C2CCCN(S(=O)(=O)c3ccc(-n4cnnn4)cc3)C2)cc1", "note": "(configuration not stated)", "Potency": "inconclusive: 10.4 µM [inhibitor, single point]"}
{"smiles": "Cc1c(C)c2cc(Cl)c(OCC(=O)NCCCn3ccnc3)cc2oc1=O", "Potency": "inconclusive: 18.5 µM [inhibitor, single point]"}
{"smiles": "CCOC(=O)c1sc2nc(-c3ccccc3)ccc2c1N", "Potency": "inactive"}
{"smiles": "CCS(=O)(=O)N1CCC(N2CCC(C)CC2)CC1", "Potency": "inactive"}
{"smiles": "CCc1c(C)nc2ncnn2c1N1CCCC(C(=O)NCCc2ccccc2)C1", "note": "(configuration not stated)", "Potency": "inconclusive: 14.7 µM [inhibitor, partial curve, poor fit]"}
{"smiles": "COc1ccc(/C=N/NC(=O)CCOc2ccccc2C)cc1OC", "Potency": "inconclusive: 11.7 µM [inhibitor, single point]"}
{"smiles": "Cc1c(Cl)cccc1NC(=S)NCC(O)c1ccccc1", "note": "(configuration not stated)", "Potency": "inactive"}
{"smiles": "O=C(Nc1nc2ccccc2n1CCN1CCCCC1)C1CCCCC1", "Potency": "inconclusive: 11.7 µM [inhibitor, partial curve, poor fit]"}
{"smiles": "COc1ccc2c(c1OC)C(=O)N1C2SC(C)(C)[C@H]1C(=O)NCC(C)C", "note": "(some centres not stated)", "Potency": "inactive"}
{"smiles": "CCOc1ccc(NC(=S)NCCCc2ccccc2)cc1", "Potency": "inactive"}
{"smiles": "O=C(c1ccc(Br)cc1)N(Cc1ccco1)C1CCS(=O)(=O)C1", "note": "(configuration not stated)", "Potency": "inconclusive: 16.5 µM [inhibitor, single point]"}
{"smiles": "COc1ccc(CCn2c(O)c(/C=N/N3CCCCC3)c(=O)[nH]c2=O)cc1OC", "Potency": "inactive"}
{"smiles": "COCCNC(=O)Cn1cnc([N+](=O)[O-])n1", "Potency": "inconclusive: 18.5 µM [inhibitor, single point]"}
{"smiles": "COc1cc2c(cc1OC)C(C)N(C(=O)c1ccc(Br)o1)CC2", "note": "(configuration not stated)", "Potency": "inactive"}
{"smiles": "COc1ccc(-c2noc(CN3CCCC(OCc4ccccn4)C3)n2)cc1", "note": "(configuration not stated)", "Potency": "inconclusive: 11.7 µM [inhibitor, single point]"}
{"smiles": "Cc1ccc(C(=O)OCC(=O)Nc2sc3c(c2C#N)CCCCC3)cc1NC(=O)c1ccco1", "Potency": "inconclusive: 10.4 µM [inhibitor, single point]"}
